The target in this assay is androgen receptor (Homo sapiens, UniProt P10275). Description: AR antagonist cell assay (MDA-MB453-MMTV clone 54-19 luciferase reporter, 100 pM DHT). The conditions noted are these: read-out: AR Cell IC50; MDA-MB453-MMTV clone 54-19, inhibition of 100 pM DHT induction, 17 hr; mean of multiple tests. (Reporter assays use an easily measured gene product as a stand-in for the process of interest.)

Protein sequences, listed by entry. Tags and fused reporters are not part of them.
UniProt P10275, whole entry Q868H: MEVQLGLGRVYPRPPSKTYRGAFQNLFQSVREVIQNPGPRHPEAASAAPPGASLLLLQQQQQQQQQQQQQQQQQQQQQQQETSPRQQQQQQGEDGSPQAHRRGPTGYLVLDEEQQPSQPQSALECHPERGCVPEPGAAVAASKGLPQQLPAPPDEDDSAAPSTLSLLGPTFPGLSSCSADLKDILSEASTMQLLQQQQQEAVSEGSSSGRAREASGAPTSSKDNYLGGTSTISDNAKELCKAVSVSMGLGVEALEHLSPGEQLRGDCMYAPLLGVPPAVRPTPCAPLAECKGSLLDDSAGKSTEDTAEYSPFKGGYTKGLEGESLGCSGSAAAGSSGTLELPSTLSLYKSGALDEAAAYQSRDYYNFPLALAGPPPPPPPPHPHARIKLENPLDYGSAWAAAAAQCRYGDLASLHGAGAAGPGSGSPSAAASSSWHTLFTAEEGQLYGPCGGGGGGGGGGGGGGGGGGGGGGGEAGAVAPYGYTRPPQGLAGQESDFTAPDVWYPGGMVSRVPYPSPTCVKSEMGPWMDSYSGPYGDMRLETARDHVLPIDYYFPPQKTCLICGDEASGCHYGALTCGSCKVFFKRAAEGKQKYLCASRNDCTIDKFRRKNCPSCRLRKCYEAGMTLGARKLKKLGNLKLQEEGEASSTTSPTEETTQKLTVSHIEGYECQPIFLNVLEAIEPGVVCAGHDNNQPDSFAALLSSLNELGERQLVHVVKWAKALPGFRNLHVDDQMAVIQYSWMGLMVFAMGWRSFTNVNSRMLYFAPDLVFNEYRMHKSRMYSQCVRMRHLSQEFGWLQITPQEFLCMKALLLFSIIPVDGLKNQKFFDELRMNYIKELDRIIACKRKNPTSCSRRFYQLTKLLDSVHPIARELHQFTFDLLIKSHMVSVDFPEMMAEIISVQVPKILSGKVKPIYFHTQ

Structures were worked out from names or drawings and are uncertain.

Turning to `CC(C)CC(Oc1ccc(C#N)c(C(F)(F)F)c1)C(=O)NC(C)Cc1ccsc1` (stereo not shown), the IC50 is > 1000 nM.

By IC50 is commonly meant the midpoint of a concentration-inhibition curve.

The values above are taken from patent US7507860B2 (Pfizer Inc., priority 2004, dated 2009).
